Measurements published in publication PMC6683012.
Results are given in words; binding and its absence hold for the method and conditions named. Binding seen in cells or lysates may run through a third protein. Here binding means that the protein was enriched with, or labelled near, the bait; the list need not be complete. Sequences can lack the tags named with a protein.

Key:
[1] = biological target: T1, SIRK1-GFP (Sucrose-induced receptor kinase 1 fused to GFP) (Arabidopsis) (UniProt Q0WR59); assay: affinity purification with mass spectrometry; single-step pull-down of GFP-tagged bait from 100 ug root microsomal proteins on anti-GFP agarose beads (Chromotek), 2 h at 4 C; washed with 10 mM Tris/HCl pH 7.5, 150 mM NaCl, 0.5 mM EDTA, 0.01% IGEPAL; eluted with 6 M urea, 2 M thiourea; LC-MS/MS with label-free quantitation; roots sucrose-starved or resupplied with 30 mM sucrose for 3 min; GFP-only pulldown as control
T1 sequence: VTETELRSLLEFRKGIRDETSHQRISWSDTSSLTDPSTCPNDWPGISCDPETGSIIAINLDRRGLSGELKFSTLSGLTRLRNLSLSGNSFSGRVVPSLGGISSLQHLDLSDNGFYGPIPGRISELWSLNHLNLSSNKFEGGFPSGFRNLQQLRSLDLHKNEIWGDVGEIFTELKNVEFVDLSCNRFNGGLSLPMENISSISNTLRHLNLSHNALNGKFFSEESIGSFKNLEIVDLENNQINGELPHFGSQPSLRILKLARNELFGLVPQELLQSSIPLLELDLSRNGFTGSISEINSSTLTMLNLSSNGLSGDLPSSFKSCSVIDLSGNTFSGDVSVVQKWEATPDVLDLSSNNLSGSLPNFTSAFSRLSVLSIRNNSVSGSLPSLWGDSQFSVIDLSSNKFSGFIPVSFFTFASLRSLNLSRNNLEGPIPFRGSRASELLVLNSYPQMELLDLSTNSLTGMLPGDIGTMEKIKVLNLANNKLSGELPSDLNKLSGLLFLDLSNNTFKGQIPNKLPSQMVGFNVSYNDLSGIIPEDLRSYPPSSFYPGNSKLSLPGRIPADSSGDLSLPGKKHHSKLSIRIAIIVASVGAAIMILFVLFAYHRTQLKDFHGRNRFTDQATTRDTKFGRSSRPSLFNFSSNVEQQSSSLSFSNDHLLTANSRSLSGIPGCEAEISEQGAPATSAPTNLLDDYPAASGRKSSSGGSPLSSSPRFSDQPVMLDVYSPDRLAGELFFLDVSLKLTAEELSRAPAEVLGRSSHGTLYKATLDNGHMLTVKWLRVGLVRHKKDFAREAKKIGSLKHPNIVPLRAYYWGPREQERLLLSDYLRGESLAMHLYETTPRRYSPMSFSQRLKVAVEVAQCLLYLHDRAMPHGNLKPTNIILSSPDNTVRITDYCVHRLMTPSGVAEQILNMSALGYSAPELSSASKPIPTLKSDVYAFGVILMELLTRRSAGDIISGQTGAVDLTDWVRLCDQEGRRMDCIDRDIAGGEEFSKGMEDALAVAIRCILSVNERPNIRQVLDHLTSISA

[2] = biological target: T2, QSK1-GFP (Arabidopsis) (UniProt Q9M8T0); assay: as above
T2 sequence: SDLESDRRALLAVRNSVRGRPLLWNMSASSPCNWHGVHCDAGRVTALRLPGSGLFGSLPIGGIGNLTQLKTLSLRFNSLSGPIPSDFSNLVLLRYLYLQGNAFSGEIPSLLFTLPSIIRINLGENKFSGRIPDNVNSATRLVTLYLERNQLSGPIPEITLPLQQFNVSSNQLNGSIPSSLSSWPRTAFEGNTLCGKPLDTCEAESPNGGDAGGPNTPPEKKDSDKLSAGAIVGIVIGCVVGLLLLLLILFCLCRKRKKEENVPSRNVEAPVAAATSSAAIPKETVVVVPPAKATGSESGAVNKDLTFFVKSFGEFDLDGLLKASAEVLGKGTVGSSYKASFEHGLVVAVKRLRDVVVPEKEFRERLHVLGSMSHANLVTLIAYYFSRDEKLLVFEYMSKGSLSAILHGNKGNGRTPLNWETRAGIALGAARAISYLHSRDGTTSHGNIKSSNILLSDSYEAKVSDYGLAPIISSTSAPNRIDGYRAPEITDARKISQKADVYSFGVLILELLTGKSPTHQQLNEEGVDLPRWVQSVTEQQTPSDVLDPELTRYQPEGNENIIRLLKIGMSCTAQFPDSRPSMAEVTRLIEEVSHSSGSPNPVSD

Row | Binder | binding [1] | binding [2]
1 | QSK1 (AT3G02880), endogenous (receptor, UniProt Q9M8T0 24-627) SDLESDRRALLAVRNSVRGRPLLWNMSASSPCNWHGVHCDAGRVTALRLPGSGLFGSLPIGGIGNLTQLKTLSLRFNSLSGPIPSDFSNLVLLRYLYLQGNAFSGEIPSLLFTLPSIIRINLGENKFSGRIPDNVNSATRLVTLYLERNQLSGPIPEITLPLQQFNVSSNQLNGSIPSSLSSWPRTAFEGNTLCGKPLDTCEAESPNGGDAGGPNTPPEKKDSDKLSAGAIVGIVIGCVVGLLLLLLILFCLCRKRKKEENVPSRNVEAPVAAATSSAAIPKETVVVVPPAKATGSESGAVNKDLTFFVKSFGEFDLDGLLKASAEVLGKGTVGSSYKASFEHGLVVAVKRLRDVVVPEKEFRERLHVLGSMSHANLVTLIAYYFSRDEKLLVFEYMSKGSLSAILHGNKGNGRTPLNWETRAGIALGAARAISYLHSRDGTTSHGNIKSSNILLSDSYEAKVSDYGLAPIISSTSAPNRIDGYRAPEITDARKISQKADVYSFGVLILELLTGKSPTHQQLNEEGVDLPRWVQSVTEQQTPSDVLDPELTRYQPEGNENIIRLLKIGMSCTAQFPDSRPSMAEVTRLIEEVSHSSGSPNPVSD | binds | –
2 | Calcium ATPase ACA8 (protein, UniProt Q9LF79 1-1074) MTSLLKSSPGRRRGGDVESGKSEHADSDSDTFYIPSKNASIERLQQWRKAALVLNASRRFRYTLDLKKEQETREMRQKIRSHAHALLAANRFMDMGRESGVEKTTGPATPAGDFGITPEQLVIMSKDHNSGALEQYGGTQGLANLLKTNPEKGISGDDDDLLKRKTIYGSNTYPRKKGKGFLRFLWDACHDLTLIILMVAAVASLALGIKTEGIKEGWYDGGSIAFAVILVIVVTAVSDYKQSLQFQNLNDEKRNIHLEVLRGGRRVEISIYDIVVGDVIPLNIGNQVPADGVLISGHSLALDESSMTGESKIVNKDANKDPFLMSGCKVADGNGSMLVTGVGVNTEWGLLMASISEDNGEETPLQVRLNGVATFIGSIGLAVAAAVLVILLTRYFTGHTKDNNGGPQFVKGKTKVGHVIDDVVKVLTVAVTIVVVAVPEGLPLAVTLTLAYSMRKMMADKALVRRLSACETMGSATTICSDKTGTLTLNQMTVVESYAGGKKTDTEQLPATITSLVVEGISQNTTGSIFVPEGGGDLEYSGSPTEKAILGWGVKLGMNFETARSQSSILHAFPFNSEKKRGGVAVKTADGEVHVHWKGASEIVLASCRSYIDEDGNVAPMTDDKASFFKNGINDMAGRTLRCVALAFRTYEAEKVPTGEELSKWVLPEDDLILLAIVGIKDPCRPGVKDSVVLCQNAGVKVRMVTGDNVQTARAIALECGILSSDADLSEPTLIEGKSFREMTDAERDKISDKISVMGRSSPNDKLLLVQSLRRQGHVVAVTGDGTNDAPALHEADIGLAMGIAGTEVAKESSDIIILDDNFASVVKVVRWGRSVYANIQKFIQFQLTVNVAALVINVVAAISSGDVPLTAVQLLWVNLIMDTLGALALATEPPTDHLMGRPPVGRKEPLITNIMWRNLLIQAIYQVSVLLTLNFRGISILGLEHEVHEHATRVKNTIIFNAFVLCQAFNEFNARKPDEKNIFKGVIKNRLFMGIIVITLVLQVIIVEFLGKFASTTKLNWKQWLICVGIGVISWPLALVGKFIPVPAAPISNKLKVLKFWGKKKNSSGEGSL | binds | –
3 | QSK2 (AT5G16590), endogenous (receptor, UniProt Q9FMD7 24-625) DLEADRRALIALRDGVHGRPLLWNLTAPPCTWGGVQCESGRVTALRLPGVGLSGPLPIAIGNLTKLETLSFRFNALNGPLPPDFANLTLLRYLYLQGNAFSGEIPSFLFTLPNIIRINLAQNNFLGRIPDNVNSATRLATLYLQDNQLTGPIPEIKIKLQQFNVSSNQLNGSIPDPLSGMPKTAFLGNLLCGKPLDACPVNGTGNGTVTPGGKGKSDKLSAGAIVGIVIGCFVLLLVLFLIVFCLCRKKKKEQVVQSRSIEAAPVPTSSAAVAKESNGPPAVVANGASENGVSKNPAAVSKDLTFFVKSFGEFDLDGLLKASAEVLGKGTFGSSYKASFDHGLVVAVKRLRDVVVPEKEFREKLQVLGSISHANLVTLIAYYFSRDEKLVVFEYMSRGSLSALLHGNKGSGRSPLNWETRANIALGAARAISYLHSRDATTSHGNIKSSNILLSESFEAKVSDYCLAPMISPTSTPNRIDGYRAPEVTDARKISQKADVYSFGVLILELLTGKSPTHQQLHEEGVDLPRWVSSITEQQSPSDVFDPELTRYQSDSNENMIRLLNIGISCTTQYPDSRPTMPEVTRLIEEVSRSPASPGPLSD | binds | –
4 | SIRK1 (AT5G10020), endogenous (receptor, UniProt Q0WR59 22-1048) VTETELRSLLEFRKGIRDETSHQRISWSDTSSLTDPSTCPNDWPGISCDPETGSIIAINLDRRGLSGELKFSTLSGLTRLRNLSLSGNSFSGRVVPSLGGISSLQHLDLSDNGFYGPIPGRISELWSLNHLNLSSNKFEGGFPSGFRNLQQLRSLDLHKNEIWGDVGEIFTELKNVEFVDLSCNRFNGGLSLPMENISSISNTLRHLNLSHNALNGKFFSEESIGSFKNLEIVDLENNQINGELPHFGSQPSLRILKLARNELFGLVPQELLQSSIPLLELDLSRNGFTGSISEINSSTLTMLNLSSNGLSGDLPSSFKSCSVIDLSGNTFSGDVSVVQKWEATPDVLDLSSNNLSGSLPNFTSAFSRLSVLSIRNNSVSGSLPSLWGDSQFSVIDLSSNKFSGFIPVSFFTFASLRSLNLSRNNLEGPIPFRGSRASELLVLNSYPQMELLDLSTNSLTGMLPGDIGTMEKIKVLNLANNKLSGELPSDLNKLSGLLFLDLSNNTFKGQIPNKLPSQMVGFNVSYNDLSGIIPEDLRSYPPSSFYPGNSKLSLPGRIPADSSGDLSLPGKKHHSKLSIRIAIIVASVGAAIMILFVLFAYHRTQLKDFHGRNRFTDQATTRDTKFGRSSRPSLFNFSSNVEQQSSSLSFSNDHLLTANSRSLSGIPGCEAEISEQGAPATSAPTNLLDDYPAASGRKSSSGGSPLSSSPRFSDQPVMLDVYSPDRLAGELFFLDVSLKLTAEELSRAPAEVLGRSSHGTLYKATLDNGHMLTVKWLRVGLVRHKKDFAREAKKIGSLKHPNIVPLRAYYWGPREQERLLLSDYLRGESLAMHLYETTPRRYSPMSFSQRLKVAVEVAQCLLYLHDRAMPHGNLKPTNIILSSPDNTVRITDYCVHRLMTPSGVAEQILNMSALGYSAPELSSASKPIPTLKSDVYAFGVILMELLTRRSAGDIISGQTGAVDLTDWVRLCDQEGRRMDCIDRDIAGGEEFSKGMEDALAVAIRCILSVNERPNIRQVLDHLTSISA | – | binds
